No constants are given. Whether binding was seen depends on the method and setting. Some entries that bind do so weakly or less than the wild type.
Molecular target: human folate receptor β (FRβ) (human) (UniProt P14207)
Assay: hybridoma clones screened by reactivity with FRβ-expressing cells (human FRβ on B300-19); flow cytometry named, result not given

Chains of the proteins cited; added tags and fusions are not shown. Lines headed by an entry give the natural chain unless they say otherwise; changes in a name come on top.
UniProt P14207: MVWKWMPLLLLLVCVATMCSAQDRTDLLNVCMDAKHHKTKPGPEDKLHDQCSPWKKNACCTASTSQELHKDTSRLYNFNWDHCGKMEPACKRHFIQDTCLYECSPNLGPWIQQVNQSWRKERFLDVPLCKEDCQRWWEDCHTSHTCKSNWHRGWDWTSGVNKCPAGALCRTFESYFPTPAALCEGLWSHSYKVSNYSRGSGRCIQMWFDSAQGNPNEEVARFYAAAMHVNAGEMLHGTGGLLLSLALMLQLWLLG

B1: anti-human FRβ mouse monoclonal antibody clone 36b (antibody, V domains shown)
VH: QVQLQQSGAELMKPGASLKISCKATGYTFSSYWIEWVKQRPGHGLQWIGEILPGSGSSNYNEKFKGKATFTADTSSNTAYMQLSSLTSEDSAVYYCARRGSSGSYFAMDYWGQGTSVTVSS
VL: DIQMTQSSSSFSVSLGDRVTITCKASEDIYNRLAWYQQKPGNAPRLLISGATSLETGVPLRFSGSGSGKDYTLSITSLQTEDIATYYCQQYWSTPWTFGGGTKLEIK
With B1 the binding was “binds”.
